Data taken from US20160243230A1.
No constants are given. Whether binding was seen depends on the method and setting. In cells and extracts the contact can be indirect. Some results given as binding are weak or reduced against the parent protein; the word gives no strength.

Chains of the proteins cited; added tags and fusions are not shown. Residues count along the entry.
UniProt P05067, residues 672-711: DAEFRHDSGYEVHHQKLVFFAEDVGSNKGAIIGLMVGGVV
UniProt P10997, residues 34-70: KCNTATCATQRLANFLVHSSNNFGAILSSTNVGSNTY

Experiments:
[1] = molecular target: synthetic Aβ(1-40) amyloid fibrils (UniProt P05067); test: pulldown, fibrils pre-incubated with peptope, detected with 125I-7D8
[2] = molecular target: synthetic islet amyloid polypeptide (IAPP) fibrils (UniProt P10997); test: as above
[3] = molecular target: synthetic Aβ(1-40) amyloid fibrils (UniProt P05067); test: pulldown with 125I-peptide, 0.15 M and 1.0 M NaCl
[4] = molecular target: synthetic islet amyloid polypeptide (IAPP) fibrils (UniProt P10997); test: pulldown with 125I-peptide, 0.15 M and 1.0 M NaCl

Row | Binder | binding [1] | binding [2] | binding [3] | binding [4]
1 | GGGYSKAQKAQAKQAKQAQKAQKAQAKQAKQAQHEDT [peptope p75] | binds | binds | – | –
2 | KAQKAQAKQAKQAQKAQKAQAKQAKQAQKAQKAQAKQAKQ [peptide p5+14] | – | – | binds | binds
3 | peptide p66 (11-1F4 peptope) (peptide) peptide: KAQKAQAKQAKQAQKAQKAQAKQAKQAQKAQKAQAKQAKQSVTVVTKHYAAFPENLLI | – | – | binds | binds

Results, then the binder that gave them:

Row | binding [1] | binding [2] | binding [3] | binding [4] | Binder
4 | binds | binds | – | – | GGGYSKAQKAQAKQAKQAQKAQKAQAKQAKQGGGHEDT [peptope p76]
5 | binds | binds | – | – | GGGYSKAQKAQAKQAKQAQKAQKAQAKQAKQVTVHEDT [peptope p78]
6 | binds | binds | – | – | GGGYSKAQKAQAKQAKQAQKAQKAQAKQAKQGPGHEDT [peptope p77]
